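Selective DUX4 reporter inhibition in doxycycline-induced 293T-iDUX4 cells, scored as Gaussia percent activity minus Italica percent activity, after a 24-hour treatment. The test concentration is not given here. Percent difference between the Gaussia and Italica channels; more negative values mean more selective suppression of the DUX4 reporter, and higher values mean less activity.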

Values are in %. The controls that fix the scale are not given here. Common to all entries: measured here: selective DUX4 reporter inhibition. Part of the compounds only, not a random draw; the main read-out is not listed here.

compound | Gaussia minus Italica difference (%)
COc1ccc2c3c(n(C)c2c1)[C@@H](CO)N(C(=O)Nc1cccc(F)c1)CC31CN(Cc2nccs2)C1 | -16.5
C[C@H](CO)N1C[C@H](C)[C@@H](CN(C)S(=O)(=O)c2cn(C)cn2)OCc2ccccc2-c2c(n(C)c3ccccc23)C1=O | -8.05
COc1ccc(S(=O)(=O)N2CC[C@@H]3[C@@H](CO)Nc4ccc(-c5ccc(C#N)cc5)cc4[C@@H]32)cc1 | 1.208
Cc1ccc(OC(=O)N(C)C[C@@H]2OCc3ccccc3-c3c(n(C)c4ccccc34)C(=O)N([C@H](C)CO)C[C@@H]2C)cc1 | -3.508
COc1cccc(CN2CC3(C2)[C@H](c2ccccc2)[C@@H](CO)N3Cc2cccc(OC)c2)c1 | -13.57
CO[C@@H]1CN(C)C(=O)c2ccc(NC(=O)C3CCCCC3)cc2OC[C@@H](C)N(C(=O)Nc2ccc(C(F)(F)F)cc2)C[C@H]1C | -5.102
C/C=C/c1ccc([C@H]2[C@@H](CO)N3CCCCN(S(=O)(=O)c4ccc(OC)cc4)C[C@@H]23)cc1 | -6.703
C[C@H]1CN([C@@H](C)CO)C(=O)c2c(c3ccccc3n2C)-c2ccccc2CO[C@@H]1CN(C)C(=O)Nc1ccccc1C(F)(F)F | -7.386
Cc1cccc(-c2ccc([C@H]3[C@@H](CO)N4CCCCN(C(=O)c5ccncc5)C[C@@H]34)cc2)c1 | 4.385
CCCC#Cc1ccc([C@@H]2[C@H](CO)N3C(=O)CN(C(=O)Nc4cc(F)ccc4F)C[C@@H]23)cc1 | -15.14
O=C(C[C@@H]1CC[C@@H]2[C@H](COC[C@H](O)CN2Cc2ccc(C(F)(F)F)cc2)O1)N1CCc2ccccc2C1 | -13.08
COc1ccc2c3c([nH]c2c1)[C@@H](CO)N(S(=O)(=O)c1ccc(C)cc1)CC31CCN(C(=O)Cc2cccnc2)CC1 | -5.98
O=C(C[C@@H]1CC[C@@H]2[C@H](COC[C@H](O)CN2C(=O)c2ccccc2)O1)Nc1ccc(-c2ccccc2)cc1 | 5.661
COCC(=O)Nc1ccc2c(c1)C(=O)N(C)C[C@H](OC)[C@@H](C)CN(CC1CCCCC1)[C@H](C)CO2 | -12.33
C[C@H](CO)N1C[C@H](C)[C@H](CN(C)S(=O)(=O)c2ccsc2)OCc2ccccc2-c2c(n(C)c3ccccc23)C1=O | -20.29
COc1ccc2c3c([nH]c2c1)[C@@H](CO)N(Cc1cccc(F)c1)CC31CN(CC2CC2)C1 | -15.01
COc1ccc(-c2ccc3c(c2)[C@H]2[C@H](CCN2C(=O)c2cccc(F)c2)[C@H](CO)N3)cc1 | 9.438
O=S(=O)(c1ccccc1F)N1C[C@@H]2N[C@H](C1)C2c1ccc(/C=C/c2ccccc2)cc1 (stereo partly drawn) | -17.52
COc1ccc2c3c([nH]c2c1)[C@H](CO)N(Cc1cccc(Cl)c1)CC31CCN(C)CC1 | -5.258
COc1cccc(S(=O)(=O)N(C)C[C@H]2OCc3ccccc3-c3c(n(C)c4ccccc34)C(=O)N([C@H](C)CO)C[C@@H]2C)c1 | 6.185
COc1ccc2c3c([nH]c2c1)[C@H](CO)N(Cc1ccncc1)CC31CCN(Cc2ccc(-c3ccccn3)cc2)CC1 | -21.86
COc1cccc(NC(=O)Nc2ccc3c(c2)C(=O)N(C)C[C@H](OC)[C@@H](C)CN(CC2CC2)[C@@H](C)CO3)c1 | -14.6
Cc1cccc(-c2ccc(C3[C@@H]4CN(Cc5ccccc5F)C[C@H]3N4)cc2)c1 (stereo partly drawn) | -19.58
CN(C)C(=O)c1ccc(-c2ccc3c(c2)[C@H]2[C@H](CCN2C(=O)c2ccc4c(c2)OCO4)[C@@H](CO)N3)cc1 | 0.2283
O=C(c1ccccn1)N1CC[C@@H]2[C@@H](CO)Nc3ccc(C#Cc4cccnc4)cc3[C@@H]21 | -16.12
COc1ccccc1C#Cc1ccc2c(c1)[C@H]1[C@H](CCN1C(=O)c1ccc(F)cc1)[C@@H](CO)N2 | -14.97
O=C(Nc1ccc(F)cc1)N1CCCCN2[C@H](CO)[C@H](c3ccc(C#Cc4ccccc4)cc3)[C@@H]2C1 | -3.915
O=C(Cc1cccnc1)N1CCCCN2[C@H](CO)[C@H](c3ccc(C#CC4CCCC4)cc3)[C@H]2C1 | 4.566
C[C@@H](NC(=O)[C@@H]1[C@@H](CO)[C@@H]2Cn3c(cccc3=O)[C@@H]2N1CC1CCCCC1)c1ccccc1 | -5.796
COc1cccc(S(=O)(=O)Nc2ccc3c(c2)[C@@H]2C[C@H](CC(=O)NCc4ccc(Cl)cc4)O[C@@H](CO)[C@@H]2O3)c1 | -8.947
Cn1cnc(S(=O)(=O)N2CCCCN3[C@@H](CO)[C@@H](c4ccc(C#CC5CCCC5)cc4)[C@@H]3C2)c1 | 1.858
CN1c2ccc(-c3cccc(C#N)c3)cc2[C@H]2[C@H](CCN2C(=O)C2CCCCC2)[C@H]1CO | -4.13
C/C=C/c1ccc2c(c1)[C@H]1[C@H](CCN1C(=O)c1ccc3c(c1)OCO3)[C@H](CO)N2 | -19.5
O=C(c1cccc(F)c1)N1CC(=O)N2[C@H](C1)[C@H](c1ccc(C#Cc3ccc(F)cc3)cc1)[C@@H]2CO | -8.718
COc1ccccc1CNC(=O)C[C@@H]1C[C@H]2c3cc(NC(=O)c4ccc5c(c4)OCO5)ccc3O[C@H]2[C@H](CO)O1 | -19.9
Cc1cccc(S(=O)(=O)N2CC[C@@H]3[C@H](CO)N(C)c4ccc(-c5ccc(C#N)cc5)cc4[C@@H]32)c1 | 10.38
O=C(C[C@@H]1C[C@@H]2c3cc(NC(=O)Nc4ccccc4F)ccc3O[C@@H]2[C@@H](CO)O1)NCc1cc(F)ccc1F | -13.11
CO[C@H](CN(C)Cc1cc(F)ccc1F)[C@@H](C)CN([C@@H](C)CO)S(=O)(=O)c1ccc(C)cc1 | 8.735
C[C@H](NC(=O)C[C@H]1C[C@H]2c3cc(NC(=O)Cc4ccncc4)ccc3O[C@H]2[C@H](CO)O1)c1ccccc1 | -16.03
COc1ccc2c3c(n(C)c2c1)[C@@H](CO)N(Cc1cccc(F)c1)CC31CCN(C(=O)Cc2ccccc2)CC1 | -0.5932
CC(C)NC(=O)N1CC[C@@H]2[C@@H](CO)N(C)c3ccc(-c4ccc(F)cc4)cc3[C@@H]21 | 16.97
N#Cc1cccc(-c2ccc(C3[C@@H]4CN(S(=O)(=O)c5ccc(F)cc5)C[C@H]3N4)cc2)c1 (stereo partly drawn) | -24.54
CCCC(=O)N1CC2(C1)CN(C(=O)Nc1cccc(F)c1)[C@@H](CO)c1c2c2ccc(OC)cc2n1C | -13.23
C[C@@H]1CN([C@@H](C)CO)C(=O)c2c(c3ccccc3n2C)-c2ccccc2CO[C@H]1CN(C)C(=O)N[C@H](C)c1ccccc1 | -7.777
C[C@H](CO)N1C[C@H](C)[C@@H](CN(C)Cc2ccc(Cl)c(Cl)c2)OCc2ccccc2-c2c(n(C)c3ccccc23)C1=O | -17.42
Fc1cccc(CN2C[C@@H]3N[C@H](C2)C3c2ccc(/C=C/c3ccccc3)cc2)c1 (stereo partly drawn) | -9.847
O=C(Nc1ccccc1F)N1C[C@@H]2N[C@H](C1)C2c1ccc(-c2ccccc2)cc1 (stereo partly drawn) | -16.25
O=C(C[C@@H]1C[C@H]2c3cc(NC(=O)c4ccc5c(c4)OCO5)ccc3O[C@H]2[C@H](CO)O1)NCCc1ccccc1 | -14.9
COc1ccc2c3c(n(C)c2c1)[C@@H](CO)N(CC1CC1)CC31CN(C(=O)c2ccc3c(c2)OCO3)C1 | -15.96
CN1c2ccc(-c3cccc(C#N)c3)cc2[C@@H]2[C@@H](CCN2C(=O)NC2CCCC2)[C@H]1CO | 5.416
COc1ccc(C#Cc2ccc3c(c2)[C@H]2[C@H](CCN2Cc2nccs2)[C@H](CO)N3)cc1 | -15.47

From PubChem BioAssay record AID1224904 (Broad Institute, 2016).